Results on one molecule are retold here after patent US20100144749A1, “TREATMENT OF CANCERS WITH ACQUIRED RESISTANCE TO KIT INHIBITORS” (priority 2005, published 2010).

What all share (assay type): cell-based, murine
Test [1] relates to Ba/F3 cells expressing human c-KIT with exon 11 deletion of residues 557-558. As to the kind of experiment: Cell proliferation assay (CellTiter-Glo), Ba/F3 c-KIT exon 11 deletion mutant. The note with it: BaF3; Ba/F3, c-KIT exon 11 del 557-558; 72 h; dose range 0.6 to 10,000 nM; mean of at least three experiments; read-out: IC50 of cell proliferation inhibition, Exon 11 (WT). The procedure:
(§1) All mutations were confirmed by DNA sequencing.
(§2) Selective pressure was applied to the transfected cells by removing IL-3 from the culture medium. After IL-independent populations, further selective pressure was applied by also growing the cells in the presence of 1 mg/mL G418. […] The stable pools were further characterized by sequencing genomic DNA to confirm the presence of the transfected c-KIT cDNA.
(§3) This assay utilizes cellular ATP as a marker for cell proliferation/viability. […] Plates were then incubated in a 5% CO2 incubator at 37° C. for 3 days. After 72 h, 100 microliters of lysis/luciferase reagent (CellTiter-Glo, Promega G7573) was added to each well. The cells were then incubated on a shaker for 5 minutes at room temperature, and luminescence was measured on a Victor 5 (Perkin Elmer) spectrophotometer. Growth inhibition was measured by comparing luminescence signal from treated vs. untreated cells in assay plates, and the IC50 analysis of cell proliferation inhibition by compounds was analyzed using Analyze 5 in-house software. […] The IC50 values are mean values calculated from at least three experiments.
In general terms: ATP-based viability assays read luminescence as a measure of living cells.

Test [2] deals with Ba/F3 cells expressing c-KIT Exon 11/V654A Gleevec-resistant double mutant. Nature of the test: Cell proliferation assay (CellTiter-Glo), Ba/F3 c-KIT exon 11/V654A. The following applies: Mus musculus, BaF3, 72 h, dose range 0.6 to 10,000 nM, mean of at least three experiments, read-out: IC50 of cell proliferation inhibition, Exon 11/Gleevec-resistant Double Mutant V654A. The procedure: as §1, §2, §3

Test [3] concerns Ba/F3 cells expressing c-KIT Exon 11/T670I Gleevec-resistant double mutant. Nature of the test: Cell proliferation assay (CellTiter-Glo), Ba/F3 c-KIT exon 11/T670I. The note with it: Mus musculus, BaF3, 72 h, dose range 0.6 to 10,000 nM, mean of at least three experiments, read-out: IC50 of cell proliferation inhibition, Exon 11/Gleevec-resistant Double Mutant T670I. The procedure:
as §1, §2, §3

Test [4] relates to Ba/F3 cells expressing c-KIT Exon 11/D816G Gleevec-resistant double mutant. As to the kind of experiment: Cell proliferation assay (CellTiter-Glo), Ba/F3 c-KIT exon 11/D816G. The following applies: Mus musculus, BaF3, 72 h, dose range 0.6 to 10,000 nM, mean of at least three experiments, read-out: IC50 of cell proliferation inhibition, Exon 11/Gleevec-resistant Double Mutant D816G. The procedure: as §1, §2, §3

The subject of test [5] is Ba/F3 cells expressing c-KIT Exon 11/N822K Gleevec-resistant double mutant. As to the kind of experiment: Cell proliferation assay (CellTiter-Glo), Ba/F3 c-KIT exon 11/N822K. The following applies: Mus musculus, BaF3, 72 h, dose range 0.6 to 10,000 nM, mean of at least three experiments, read-out: IC50 of cell proliferation inhibition, Exon 11/Gleevec-resistant Double Mutant N822K. The procedure: as §1, §2, §3

Test [6] concerns Ba/F3 cells expressing c-KIT Exon 11/Y823D Gleevec-resistant double mutant. Nature of the test: Cell proliferation assay (CellTiter-Glo), Ba/F3 c-KIT exon 11/Y823D. The note with it: Mus musculus, BaF3, 72 h, dose range 0.6 to 10,000 nM, mean of at least three experiments, read-out: IC50 of cell proliferation inhibition, Exon 11/Gleevec-resistant Double Mutant Y823D. The procedure: as §1, §2, §3

SMILES strings stand for the structures.

As for `Cc1ccc(NC(=O)c2ccc(CN3CCN(C)CC3)cc2)cc1Nc1nccc(-c2cccnc2)n1` [Gleevec, imatinib], the IC50 in test [1] was 5 nM; in test [2], 168 nM; in test [3], over 10000 nM; in test [4], 87 nM; in test [5] it was 221 nM; in test [6] it was 295 nM.
